Source: patent US6562829B1, “Treatment of hepatic cirrhosis” (Hadasit Medical Research Services & Development Co., Ltd., priority 1997, dated 2003)

What was measured:
[1] = system: mild dimethylnitrosamine-induced fibrosis; test: Mild dimethylnitrosamine-induced fibrosis in rat liver (Example 2); format: in vivo; conditions: Halofuginone alone
Method: The specific experimental method used was similar to that of Example 1, except that the dimethylnitrosamine-treated rats were only given 0.25% dimethylnitrosamine in saline, a much lower dose than that given in Example 1 above. Also, the duration of treatment was longer before the rats were sacrificed: 4 weeks as opposed to 3 weeks in Example 1.
The expression of the collagen α1(I) gene was measured as described in Example 1 above. For hydroxyproline analysis, liver samples were hydrolyzed for 22 hours at 110° C. with 6 N HCl. Nitrogen was determined after Kjeldahl digestion by the spectrophotometric procedure using an autoanalyzer as described by Krom [M. D. Krom, Analyst, 105:305-16, 1980]. The collagen-unique amino acid hydroxyproline from the same hydrolysate was determined by amino acid analysis (Biotronik LC 5000, Germany) after post-column derivatization on a cation exchange column (BTC 2710, Biotronik). The results are expressed as the percentage of collagen in total liver proteins.

[2] = system: dimethylnitrosamine-induced hepatic fibrosis; test: Dimethylnitrosamine-induced severe liver fibrosis in rats (Example 1); format: in vivo; conditions: rats given Halofuginone alone, 5 mg/kg diet
Method: The experimental method was as follows. Male Sprague-Dawley rats were divided into four groups. Two groups were injected intraperitoneally with 1% dimethylnitrosamine in saline for three consecutive days per week for 3 weeks, at a dose of 1 ml/kg body weight. This dosage regimen will induce severe liver fibrosis. The other two groups of rats, control rats, were injected with saline. One group of dimethylnitrosamine-treated rats and one control group were fed Halofuginone in the diet at a dose of 5 mg/kg weight of diet, starting three days before the dimethylnitrosamine injections were administered. At the end of the experimental period, the rats were sacrificed and the liver was removed and weighed.
Liver samples were taken for histological examination. Briefly, the tissue samples were collected into phosphate-buffered saline (PBS) and fixed overnight in 4% paraformaldehyde in PBS at 4° C. Serial 5 μm sections were prepared after the samples had been dehydrated in graded ethanol solutions, cleared in chloroform and embedded in Paraplast. Differential staining of collagenous and non-collagenous proteins was performed with 0.1% Sirius red and 0.1% fast green as a counter-stain in picric acid. This procedure stains collagen red [Gascon-Barre, M., et al., J. Histochem. Cytochem., 37:377-381, 1989].
Liver samples were then hybridized with a probe for rat collagen α1(I) expression. […]

Structure (SMILES): O=C(CC1NCCC[C@H]1O)Cn1cnc2cc(Br)c(Cl)cc2c1=O (some centres unmarked) [Halofuginone]
- collagen α1(I) gene expression in liver [1]: no effect
- expression of collagen α1(I) gene in liver (in situ hybridization) [2]: low expression
